Reference: PubChem BioAssay AID504808 (Drosophila RNAi Screening Center, 2011)

- Aim: 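Fly genes required to hold E2F transcription in check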 (primary screen)
- Cells: Drosophila S2 cells
- Reagent: long dsRNA against Drosophila genes
- Detection: 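Firefly luciferase driven by E2F sites, normalised to Renilla luciferase on the same minimal promoter, measured by plate reader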
- Reading the numbers: E2F firefly: higher = more E2F reporter activity; Renilla normaliser: higher = more normaliser reporter signal
- Active means: 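Called active if the normalised E2F reporter went up by over 50%; the cutoff is arbitrary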
The deposit covers about 21,000 reagents; shown is an unselected part of those with a known target gene and a result. Of all reagents, 18 (0.084%) were called active. 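Raw counts without plate normalisation, one of two replicates; the ratio scores behind the calls were not deposited.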 The numbers tell different reagents against one gene apart. Names joined by + are all predicted targets of the reagent. No sequences are given here. The record does not give: the amount of reagent, the time to read-out.

| Target gene | reagent | E2F firefly, rep 1 | Renilla normaliser, rep 1 | outcome |
| --- | --- | --- | --- | --- |
| CIAPIN1 | 1 | 84442 | 3730 | inactive |
| CG9662 | 1 | 1.66e5 | 5665 | inactive |
| CG17919 | 1 | 54010 | 3404 | inactive |
| puc | 1 | 65077 | 4581 | inactive |
| CG32176 | 1 | 1.63e5 | 7728 | inactive |
| CG32176 | 2 | 1.81e5 | 8157 | inactive |
| CG16956 | 1 | 1.09e5 | 4385 | inactive |
| obst-B | 1 | 76688 | 3387 | inactive |
| CG17048 | 1 | 1.03e5 | 4331 | inactive |
| CG7548 | 1 | 1.02e5 | 4081 | inactive |
| Gpb5 | 1 | 72494 | 5023 | inactive |
| Gycbeta100B | 1 | 71407 | 2730 | inactive |
| Gycbeta100B | 2 | 87676 | 2483 | inactive |
| Gycbeta100B | 3 | 2096 | 940 | inactive |
| CG9391 | 1 | 1.13e5 | 5654 | inactive |
| AnxB11 | 1 | 6718 | 812 | inactive |
| Rbcn-3A | 1 | 80232 | 4437 | inactive |
| CG4630 | 1 | 118 | 29 | inactive |
| CG3224 | 1 | 96913 | 5969 | inactive |
| CG10031 | 1 | 1.55e5 | 5553 | inactive |
| lgs | 1 | 1836 | 924 | inactive |
| CG9921 | 1 | 49553 | 3698 | inactive |
| CG7173 | 1 | 51954 | 3276 | inactive |
| CG14414 | 1 | 1.39e5 | 6062 | inactive |
| CG34028 | 1 | 81820 | 2635 | inactive |
| CG13698 | 1 | 76523 | 3777 | inactive |
| lncRNA:CR32553 | 1 | 85939 | 3370 | inactive |
| CG8960 | 1 | 70317 | 3422 | inactive |
| Grl40a | 1 | 1.16e5 | 4422 | inactive |
| DCX-EMAP | 1 | 1.59e5 | 6620 | inactive |
| DCX-EMAP | 2 | 1.73e5 | 5699 | inactive |
| CG4213 | 1 | 1.56e5 | 5400 | inactive |
| Tet | 1 | 81987 | 3595 | inactive |
| pit | 1 | 1.33e5 | 8870 | inactive |
| Smox | 1 | 97041 | 5444 | inactive |
| CG14693 | 1 | 1.43e5 | 6829 | inactive |
| nub | 1 | 1.34e5 | 5546 | inactive |
| nub | 2 | 93713 | 3737 | inactive |
| nub | 3 | 1.05e5 | 4670 | inactive |
| nub | 4 | 87819 | 4943 | inactive |
| loj | 1 | 85661 | 4266 | inactive |
| CG11626 | 1 | 1.37e5 | 6578 | inactive |
| wdn | 1 | 1530 | 880 | inactive |
| Mi-2 + Su(Tpl) | 1 | 86765 | 3918 | inactive |
| tHMG1 | 1 | 1.20e5 | 6849 | inactive |
| caps | 1 | 1.50e5 | 6277 | inactive |
| tral | 1 | 46751 | 163 | inactive |
| al | 1 | 1.65e5 | 5381 | inactive |
| IntS14 | 1 | 88388 | 3730 | inactive |
| fand | 1 | 2162 | 232 | inactive |
| ChT | 1 | 63093 | 3427 | inactive |
| CG6067 | 1 | 1.03e5 | 6120 | inactive |
| CG14610 + asRNA:CR42738 | 1 | 1.28e5 | 6678 | inactive |
| lobo | 1 | 97020 | 4647 | inactive |
| lobo | 2 | 1.06e5 | 6192 | inactive |
| CG8036 | 1 | 1.32e5 | 6640 | inactive |
| CG12479 | 1 | 1.59e5 | 6482 | inactive |

5 entries from above, set out differently:
CG14414
- E2F firefly, rep 1: 1.39e5
- Renilla normaliser, rep 1: 6062
- outcome: inactive

CG34028
- E2F firefly, rep 1: 81820
- Renilla normaliser, rep 1: 2635
- outcome: inactive

CG13698
- E2F firefly, rep 1: 76523
- Renilla normaliser, rep 1: 3777
- outcome: inactive

lncRNA:CR32553
- E2F firefly, rep 1: 85939
- Renilla normaliser, rep 1: 3370
- outcome: inactive

CG8960
- E2F firefly, rep 1: 70317
- Renilla normaliser, rep 1: 3422
- outcome: inactive
